Measurements reported in PubChem BioAssay AID2685 (National Center for Advancing Translational Sciences (NCATS), 2010).
The other results are listed elsewhere or left out. These are further read-outs of the screen, such as a control signal, another cell line or another target. No call is given for them. Compounds called inactive in the main read-out are mostly missing here. Words in brackets tell the shape of the fitted curve; partial curves, single points and poor fits give uncertain potencies.

Experiment: qHTS Assay for Lipid Storage Modulators in Drosophila S3 Cells;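 as to cell number change: cells counted by Cell Tracker Red CMTPX staining in the red channel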
Conditions: BODIPY lipid droplet fluorescence, 18-24 h; for cell number change: measured here: cell count max response, cells fed with added oleic acid
Procedure, shortened: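 Laser-scanning cytometry quantifies lipid droplet accumulation (500–530 nm total intensity; droplet/cell object ratio) in oleic acid-fed (400 uM added) Drosophila S3 cells treated with a concentration series. 20 uM Triacsin C defined 100% inhibition.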

[1] = measured here: cell number channel AC50, cells fed with added oleic acid
[2] = measured here: lipid fluorescence (Fed channel) AC50, cells fed with added oleic acid

Row | SMILES | AC50 [1] | cell number change | AC50 [2]
1 | Cc1nc2ccccc2n1CCC(=O)Nc1cccc(F)c1 | 5.8 µM [rising, single point] | – | –
2 | CCOC(=O)c1ccc(NC(=O)c2c(C)[nH]c(C(=O)OCC)c2C)cc1 | – | -11% | –
3 | CN(C)C(=O)CNC(=O)CN1C(=O)NC2(CCCc3sccc32)C1=O (stereo not given) | – | 27.6% | 0.1 µM [rising, full curve, poor fit]
4 | C=CCN1C(=O)/C(=C/c2ccc(OC(C)=O)c(OCC)c2[N+](=O)[O-])SC1=S | – | -2.23% | 29.1 µM [falling, partial curve, poor fit]
5 | Cc1cc(C)nc(SCCC(=O)Nc2ccccc2)n1 | 25.9 µM [falling, partial curve] | -76.9% | 0.651 µM [falling, single point]
6 | OCCN(CCO)c1ncnc2c1oc1ccc(Br)cc12 | – | 13.3% | –
7 | Cc1ccccc1NC1=NC(=S)N(CC(N)=O)C12CCOC(C)(C)C2 (stereo not given) | – | – | 29.1 µM [rising, single point]
8 | O=C1NCCCC1C(=O)N1CCN(C(=O)C2CCCNC2=O)CC1 (stereo not given) | – | 23.5% | 29.1 µM [rising, single point]
9 | CCc1cccc(C)c1NC(=O)CCNC(=O)c1cccc(C)c1 | – | 12.2% | 0.58 µM [falling, single point]
10 | CCC(OC(=O)c1cccs1)C(=O)NC1CCCCC1 (stereo not given) | – | 0.715% | 0.164 µM [falling, full curve]
11 | CCc1nn(-c2cc(Oc3ccccc3)nc(-c3ccccc3)n2)c(N)c1C#N | – | 13.2% | 5.8 µM [rising, partial curve]
12 | Cc1ccc(NC(=O)CCN2C(=O)c3ccccc3C2=O)cc1 | – | -12.7% | 0.58 µM [rising, single point]
13 | COc1ccc(C2C(C(=O)OCC(=O)Nc3ccc(C)cc3)CCC(=O)N2c2ccc(OC)cc2)cc1 (stereo not given) | 1.84 µM [rising, partial curve] | – | –
14 | CCn1c(-c2ccsc2)nc2c1c(=O)[nH]c(=O)n2Cc1ccccc1 | – | -4.17% | 1.3 µM [rising, full curve]
15 | Cc1cc(N2CCOCC2)n2nc(C(F)(F)F)c(-c3ccccc3)c2n1 | 6.51 µM [falling, single point] | 11.8% | 6.51 µM [falling, single point]
16 | Cc1ccc(NC(=O)COc2ccc(C(=O)c3ccccc3)cc2)c(O)c1 | – | – | 20 µM [falling, single point]
17 | COc1ccc(N2CCN(C(=O)c3cc4c(s3)CCCCC4)CC2)cc1 | – | 4.74% | 7.31 µM [falling, partial curve]
18 | O=C1c2ccccc2-c2onc3ccc(NCc4ccco4)c1c23 | 18.4 µM [falling, partial curve] | -103% | 5.8 µM [falling, full curve]
19 | N/C(=N\OS(=O)(=O)c1ccc2ccccc2c1)c1cccnc1 | – | 3.08% | –
20 | O=C(/C=C/c1ccc(Br)cc1)c1ccc(NC2=NCCCS2)cc1 | – | -17.5% | 29.1 µM [falling, single point]
21 | Fc1ccccc1C1c2[nH]c3ccccc3c2CCN1Cc1ccoc1 (stereo not given) | 9.2 µM [falling, partial curve] | -42.9% | 6.51 µM [falling, full curve, poor fit]
22 | CCOc1ncccc1C(=O)NNC(=O)c1cccc(S(=O)(=O)Nc2ccccc2OC)c1 | 3.66 µM [falling, partial curve] | – | 29.1 µM [falling, single point]
23 | COc1ccccc1CNCC(=O)Nc1ccc(N(C)C)cc1 | – | 18.3% | 1.64 µM [rising, full curve, poor fit]
24 | Cc1ccc(OCC(=O)Nc2ccc3oc(=O)ccc3c2)cc1C | – | 23.9% | –
25 | COc1cc(/C=N/NC(=O)Cc2nnc(NC(=O)c3ccccc3)s2)ccc1O | 2.06 µM [rising, full curve, poor fit] | 19.1% | –
26 | Cc1ccc(S(=O)(=O)NCCC(=O)NNC(=O)c2ccccc2O)cc1C | – | 1.68% | –
27 | Cc1ccc2cc(CCNC(=O)C(C)C)c(=O)[nH]c2c1 | 1.84 µM [rising, partial curve] | – | –
28 | CN(C)C(=O)C(=O)c1c(-c2ccccc2)cc2ccccn12 | 25.9 µM [falling, partial curve, poor fit] | -110% | 16.4 µM [falling, partial curve]
29 | Cc1ccc(-c2nn(CC(N)=O)c(=O)c3ccccc23)cc1S(=O)(=O)N(C)C | 1.64 µM [rising, full curve] | 50.4% | 0.366 µM [rising, partial curve, poor fit]
30 | COc1cccc(N2CCN(C(=O)c3ccc4nc(N5CCCCC5)sc4c3)CC2)c1 | – | – | 29.1 µM [falling, single point]

One compound at a time, from the list above.
N/C(=N\OS(=O)(=O)c1ccc2ccccc2c1)c1cccnc1 as listed: cell number change: 3.08%
COc1ccc(N2CCN(C(=O)c3cc4c(s3)CCCCC4)CC2)cc1 as listed: cell number change: 4.74%; AC50 [2]: 7.31 µM [falling, partial curve]
